Data reported in the supplement of paper PMC11264405.

How the values were obtained:
Experiment in all cases: minimum inhibitory concentration
[1] = compound: CN(C)c1cc(NC(=O)CNC(C)(C)C)c(O)c2c1C[C@H]1C[C@H]3[C@H](N(C)C)C(O)=C(C(N)=O)C(=O)[C@@]3(O)C(O)=C1C2=O [tigecycline]
[2] = compound: Cc1ncc([N+](=O)[O-])n1CCO [metronidazole]
[3] = compound: C[C@@H](O)[C@H]1C(=O)N2C(C(=O)O)=C(SCCNC=N)C[C@H]12 [imipenem]
[4] = compound: CN[C@H](CC(C)C)C(=O)N[C@H]1C(=O)N[C@@H](CC(N)=O)C(=O)N[C@H]2C(=O)N[C@H]3C(=O)N[C@H](C(=O)N[C@H](C(=O)O)c4cc(O)cc(O)c4-c4cc3ccc4O)[C@H](O)c3ccc(c(Cl)c3)Oc3cc2cc(c3O[C@@H]2O[C@H](CO)[C@@H](O)[C@H](O)[C@H]2O[C@H]2C[C@](C)(N)[C@H](O)[C@H](C)O2)Oc2ccc(cc2Cl)[C@H]1O [vancomycin]
[5] = compound: C[C@@H](O)[C@H]1C(=O)N2C(C(=O)O)=C(S[C@@H]3CN[C@H](C(=O)N(C)C)C3)[C@H](C)[C@H]12 [meropenem]
[6] = compound: CO[C@H]1/C=C/O[C@@]2(C)Oc3c(C)c(O)c4c(O)c(c(/C=N/N5CCN(C)CC5)c(O)c4c3C2=O)NC(=O)/C(C)=C\C=C\[C@H](C)[C@H](O)[C@@H](C)[C@@H](O)[C@@H](C)[C@H](OC(C)=O)[C@@H]1C [rifampicin]
[7] = compound: CC(=O)NC[C@H]1CN(c2ccc(N3CCOCC3)c(F)c2)C(=O)O1 [linezolid]
[8] = compound: CCc1c(Cl)c(O)c(Cl)c(O)c1C(=O)O[C@H]1[C@H](O)[C@H](OC)[C@H](OC/C2=C\C=C\C[C@H](O)/C(C)=C/[C@H](CC)[C@@H](O[C@@H]3OC(C)(C)[C@@H](OC(=O)C(C)C)[C@H](O)[C@@H]3O)/C(C)=C/C(C)=C/C[C@@H]([C@@H](C)O)OC2=O)O[C@@H]1C [fidaxomicin]
[9] = compound: CCC[C@@H]1C[C@@H](C(=O)N[C@@H]([C@H]2O[C@H](SC)[C@H](O)[C@@H](O)[C@H]2O)[C@H](C)Cl)N(C)C1 [clindamycin]

Test System	minimum inhibitory concentration [1] [µg/mL]	minimum inhibitory concentration [2] [µg/mL]	minimum inhibitory concentration [3] [µg/mL]	minimum inhibitory concentration [4] [µg/mL]	minimum inhibitory concentration [5] [µg/mL]	minimum inhibitory concentration [6] [µg/mL]	minimum inhibitory concentration [7] [µg/mL]	minimum inhibitory concentration [8] [µg/mL]	minimum inhibitory concentration [9] [µg/mL]
Clostridioides difficile PCR ribotype 027 isolate #117 (European region: East, country: Poland, isolate source: Human, ribotype: 027)	< 0.03	2	4	1	4	> 32	2	0.03	–
Clostridioides difficile PCR ribotype 027 isolate #118 (European region: South, country: Italy, isolate source: Human, ribotype: 027)	0.125	1	2	1	2	> 32	< 0.125	–	0.25
Clostridioides difficile PCR ribotype 027 isolate #125 (European region: East, country: Romania, isolate source: Human, ribotype: 027)	–	1	4	1	4	> 32	2	–	64
Clostridioides difficile PCR ribotype 027 isolate #126 (European region: East, country: Romania, isolate source: Human, ribotype: 027)	–	0.5	4	0.5	4	< 0.001	0.25	0.03	< 0.125
Clostridioides difficile PCR ribotype 039 isolate #148 (European region: North, country: UK, isolate source: Human, ribotype: 039)	< 0.03	< 0.125	4	0.5	–	< 0.001	2	0.004	2
Clostridioides difficile PCR ribotype 078 isolate #181 (European region: South, country: Spain, isolate source: Human, ribotype: 078)	0.06	0.25	2	1	4	< 0.001	–	0.03	16
Clostridioides difficile PCR ribotype 081 isolate #194 (European region: South, country: Italy, isolate source: Human, ribotype: 081)	0.125	< 0.125	4	–	2	< 0.001	2	0.008	16
Clostridioides difficile PCR ribotype 089 isolate #198 (European region: South, country: Italy, isolate source: Human, ribotype: 089)	< 0.03	< 0.125	2	–	2	< 0.001	2	0.125	8
Clostridioides difficile PCR ribotype 126 isolate #215 (European region: South, country: Italy, isolate source: Human, ribotype: 126)	0.06	0.25	2	–	2	< 0.001	2	0.06	16
Clostridioides difficile PCR ribotype 176 isolate #226 (European region: East, country: Slovakia, isolate source: Human, ribotype: 176)	< 0.03	0.25	8	–	8	4	2	0.03	8
Clostridioides difficile PCR ribotype 198 isolate #255 (European region: East, country: Poland, isolate source: Human, ribotype: 198)	0.5	4	4	< 0.125	4	0.03	2	–	> 128
Clostridioides difficile PCR ribotype 353 isolate #261 (European region: South, country: Italy, isolate source: Human, ribotype: 353)	< 0.03	< 0.125	2	–	2	> 32	2	0.03	4
Clostridioides difficile PCR ribotype 511 isolate #268 (European region: South, country: Italy, isolate source: Human, ribotype: 511)	< 0.03	< 0.125	2	–	2	< 0.001	2	0.125	2
Clostridioides difficile PCR ribotype 926 isolate #278 (European region: West, country: Netherlands, isolate source: Human, ribotype: 926)	0.125	< 0.125	4	–	4	< 0.001	2	0.125	0.5

Individual results from the entries so far.
Value of Clostridioides difficile PCR ribotype 027 isolate #125 (European region: East, country: Romania, isolate source: Human, ribotype: 027) under minimum inhibitory concentration [3] [µg/mL]: 4
Value of Clostridioides difficile PCR ribotype 176 isolate #226 (European region: East, country: Slovakia, isolate source: Human, ribotype: 176) under minimum inhibitory concentration [1] [µg/mL]: < 0.03
